Source: PubChem BioAssay
Some of the results follow. Shown are side measurements of this screen, not its main read-out; they come without a call. For some of these results: Most of these compounds were active or inconclusive in the main read-out, so they are no random draw.

Key:
[1] = PubChem AID 1586; conditions: yeast two-hybrid polyglutamine protein interaction, reporter readout; measured here: averaged growth delta OD
[2] = selective SMN2 exon splicing luciferase activators – cell-based, SMN2/SMN1 luciferase reporters (AID 1598); conditions: SMN2 vs SMN1 luciferase splicing reporter cells, at 10 µM; SMN1 luciferase ratio: measured here: SMN1 luciferase reporter average; SMN2 luciferase ratio: measured here: SMN2 luciferase reporter average, stronger effect = higher value
[3] = rescue of PC12 cells from polyQ htt toxicity – LDH release (AID 1610); conditions: PC12 mutant huntingtin toxicity, final LDH at 4 uM, stronger effect = lower value

Compound | signal change (36 h minus 0 h) [1] | SMN1 luciferase ratio [2] | SMN2 luciferase ratio [2] | normalised LDH release [3]
Cn1c(=O)c2c(ncn2CC(O)CO)n(C)c1=O (stereo not given) | 0.104 | 0.84 | 0.98 | 0.948
S=P(N1CC1)(N1CC1)N1CC1 | 0.0918 | 0.7 | 0.88 | 0.971
CC1(C)S[C@@H]2[C@H](NC(=O)COc3ccccc3)C(=O)N2[C@H]1C(=O)O | 0.0875 | 0.78 | 0.82 | 0.84
CC(=O)OCC(COC(C)=O)OC(C)=O | 0.0523 | 0.93 | 1.01 | 0.777
CSCCC(NC=O)C(=O)NC(CC(C)C)C(=O)NC(Cc1ccccc1)C(=O)O (stereo not given) | 0.123 | 0.83 | 0.9 | 0.64
Nc1nc2c(c(=O)[nH]1)N(C=O)C(CNc1ccc(C(=O)N[C@@H](CCC(=O)O)C(=O)O)cc1)CN2 (stereo not given in full) | 0.0346 | 0.98 | 0.98 | 0.892
CCCCC(=O)O[C@H]1CCC2C3CCc4cc(O)ccc4C3CC[C@@]21C (stereo not given in full) | 0.0843 | 0.88 | 0.98 | 1.07
CC(=O)OCC(=O)[C@@]1(O)[C@H](OC(C)=O)CC2C3CCC4=CC(=O)C=C[C@]4(C)[C@@]3(F)[C@@H](O)C[C@@]21C (stereo not given in full) | 0.126 | 0.96 | 0.95 | 0.488
CCN(CC)CCNC(=O)COc1ccc(OC)cc1 | 0.414 | 0.9 | 1.05 | 0.835
Cn1c(=O)c2[nH]c(C3CCCC3)nc2n(C)c1=O | 0.141 | 0.93 | 0.94 | 1.08
COc1ccc(-c2cc(=O)c3c(O)cc(O[C@@H]4O[C@H](CO[C@H]5O[C@H](C)[C@@H](O)[C@H](O)[C@@H]5O)[C@@H](O)[C@H](O)[C@H]4O)cc3o2)cc1O | 0.265 | 0.97 | 0.9 | 0.887
CC(C)[C@@H](C)/C=C/[C@@H](C)C1CC[C@H]2/C(=C/C=C3\C[C@@H](O)CC[C@@H]3C)CCC[C@]12C (stereo not given in full) | 0.126 | 0.92 | 0.91 | 0.659
CCC(=O)OCC(=O)C1(OC(=O)CC)C(C)CC2C3CCC4=CC(=O)C=CC4(C)C3(Cl)C(O)CC21C (stereo not given) | 0.118 | 0.92 | 0.95 | 0.661
C=NC(C(=O)NC1C(=O)N2C1SC(C)(C)C2C(=O)O)c1ccccc1 (stereo not given) | 0.18 | 0.86 | 0.96 | 0.729
COc1cc(C)c2c(=O)cc(-c3ccccc3)oc2c1 | 0.0467 | 1.26 | 1.23 | 0.999
Nc1ccc(C(=O)O)cc1 | 0.401 | 0.95 | 1.01 | 0.372
CC(Cc1cccc(C(F)(F)F)c1)NCCOC(=O)c1ccccc1 (stereo not given) | 0.162 | 0.86 | 0.9 | 0.943
O=C(Cn1ccnc1[N+](=O)[O-])NCCO | 0.0441 | 0.96 | 1.03 | 0.796
C[C@@H]1CC2C3C[C@H](F)C4=CC(=O)C=C[C@]4(C)[C@@]3(F)[C@@H](O)C[C@]2(C)[C@@]1(O)C(=O)COC(=O)C(C)(C)C (stereo not given in full) | 0.034 | 0.9 | 0.99 | 0.182
CCCN(CCC)C(=O)C(CCC(=O)O)NC(=O)c1ccccc1 (stereo not given) | 0.333 | 0.94 | 0.99 | 0.486
CCCCC(CC)CN=C(N)NC(N)=NCCCCCCN=C(N)NC(N)=NCC(CC)CCCC (stereo not given) | -0.0782 | 0.31 | 0.31 | 0.581
CC(C)(S)C(N)C(=O)O (stereo not given) | 0.0756 | 0.9 | 0.75 | 0.678
C=C(CC)C(=O)c1ccc(OCC(=O)O)c(Cl)c1Cl | 0.0115 | 0.99 | 1.05 | 0.827
NC(=O)c1cnccn1 | 0.137 | 0.9 | 0.99 | 0.783
CN(C)c1nc(N(C)C)nc(N(C)C)n1 | 0.105 | 0.87 | 0.84 | 0.807

Grouped by structure, the entries above containing an NH in an aromatic ring.
Compound | signal change (36 h minus 0 h) [1] | SMN1 luciferase ratio [2] | SMN2 luciferase ratio [2] | normalised LDH release [3]
Nc1nc2c(c(=O)[nH]1)N(C=O)C(CNc1ccc(C(=O)N[C@@H](CCC(=O)O)C(=O)O)cc1)CN2 (stereo not given in full) | 0.0346 | 0.98 | 0.98 | 0.892
Cn1c(=O)c2[nH]c(C3CCCC3)nc2n(C)c1=O | 0.141 | 0.93 | 0.94 | 1.08
